Data on three molecules can be found in ChEMBL document CHEMBL4808148, “HDAC6 screening dataset using tau-based substrate in an enzymatic assay yields selective inhibitors and activators” (2021).

For orientation: inhibition means how much of the control response was suppressed. A low value points to little suppression.

Most of the strong results are listed elsewhere, so they are rarer here than in the full data.

The target of this test is T1, Protein deacetylase HDAC6 (Homo sapiens) (UniProt Q9UBN7).
T1 sequence (whole entry): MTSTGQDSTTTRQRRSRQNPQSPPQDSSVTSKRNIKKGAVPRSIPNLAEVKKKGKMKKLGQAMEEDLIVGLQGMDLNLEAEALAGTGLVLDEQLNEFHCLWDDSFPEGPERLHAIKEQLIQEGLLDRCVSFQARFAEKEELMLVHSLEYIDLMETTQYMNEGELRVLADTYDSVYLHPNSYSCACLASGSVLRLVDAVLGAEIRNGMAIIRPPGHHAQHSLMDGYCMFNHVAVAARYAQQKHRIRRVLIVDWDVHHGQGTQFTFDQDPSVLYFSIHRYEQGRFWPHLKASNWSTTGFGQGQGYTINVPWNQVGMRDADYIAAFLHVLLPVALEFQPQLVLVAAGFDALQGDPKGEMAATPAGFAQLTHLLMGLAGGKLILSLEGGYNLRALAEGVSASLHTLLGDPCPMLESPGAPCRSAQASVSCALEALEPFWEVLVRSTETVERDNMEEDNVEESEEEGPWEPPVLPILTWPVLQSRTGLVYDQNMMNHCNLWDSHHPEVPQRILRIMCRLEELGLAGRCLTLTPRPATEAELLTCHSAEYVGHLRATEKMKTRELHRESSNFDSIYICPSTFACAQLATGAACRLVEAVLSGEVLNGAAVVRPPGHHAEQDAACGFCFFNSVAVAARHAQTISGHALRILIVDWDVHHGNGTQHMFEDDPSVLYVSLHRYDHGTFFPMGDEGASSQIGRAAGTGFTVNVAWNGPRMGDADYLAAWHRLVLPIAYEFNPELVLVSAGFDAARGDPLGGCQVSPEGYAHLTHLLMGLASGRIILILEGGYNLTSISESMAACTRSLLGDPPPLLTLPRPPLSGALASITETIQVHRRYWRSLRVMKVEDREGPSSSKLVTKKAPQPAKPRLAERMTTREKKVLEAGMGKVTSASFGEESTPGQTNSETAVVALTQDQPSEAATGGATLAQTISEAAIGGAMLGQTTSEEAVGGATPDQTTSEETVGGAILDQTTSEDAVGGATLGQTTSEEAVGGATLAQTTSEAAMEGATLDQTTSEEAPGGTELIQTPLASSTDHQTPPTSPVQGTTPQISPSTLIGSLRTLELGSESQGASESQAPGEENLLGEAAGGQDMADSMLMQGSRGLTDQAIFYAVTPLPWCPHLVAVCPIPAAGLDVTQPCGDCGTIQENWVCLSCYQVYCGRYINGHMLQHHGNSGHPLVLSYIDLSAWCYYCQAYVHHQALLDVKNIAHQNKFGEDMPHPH
Conditions: at 10 µM.
The molecule `Cc1ccc(C(=O)NCCCCCC(=O)Nc2ccccc2N)cc1` gave an inhibition of 30.7%. Under `O=C1NC(=O)c2c1c(-c1ccccc1)cc1[nH]c3ccc(O)cc3c21` stands 23.8%; under `COC(=O)[C@H](CCCNC(=N)N)NS(=O)(=O)c1ccc(C)cc1`, 4.53%.
